From PubChem BioAssay AID540256 (National Center for Advancing Translational Sciences (NCATS), 2011)
Hit rate of the full screen: of about 300,000 compounds, about 3,700 (1.2%) were called active. The inconclusive results got no clear call from the source; some entries with a clear call stand among them for comparison. Calls follow the shape of the full dose curve; tested in HEK293 cells. A potency beside an inconclusive call is a rough fit, not a confirmed value.

Assay: qHTS for Inhibitors of binding or entry into cells for Lassa Virus; also: nearly all actives have a fitted effect of over 50% in size
Settings: Lassa virus pseudotype entry inhibition, cell reporter; series mostly up to 37.9 µM
Potency is read from the fitted curve at half-maximal effect.

Row | SMILES | Potency
1 | CCOc1ccc(NC(=O)c2cc(=O)[nH]c3ccccc23)cc1 | inconclusive: 14.1 µM [inhibitor, single point]
2 | CCCc1c(C)nc(SCC(=O)C(C)(C)C)nc1OC(=O)N(C)C | inconclusive: 0.891 µM [inhibitor, single point]
3 | O=C(Nc1cccc(Cl)c1N1CCOCC1)c1ccc(Br)o1 | inconclusive: 15.8 µM [inhibitor, single point]
4 | CCC1(CC)NC(=O)N(CC(=O)NC(=O)NCc2ccccc2)C1=O | inactive
5 | Cc1nc(SCC(=O)OC(C)(C)C)c2c3c(sc2n1)CCCC3 | inactive
6 | Cn1cccc1C(=O)OCC(=O)NCCc1ccc(S(N)(=O)=O)cc1 | inconclusive: 1.26 µM [activator, single point]
7 | CCOC(=O)N1N=C(CC)CC1(O)C(F)(F)F (configuration not stated) | inconclusive: 35.5 µM [activator, partial curve, poor fit]
8 | CC(=O)c1c(C)[nH]c(C(=O)OCC(=O)N2CCc3ccccc32)c1C | inconclusive: 0.092 µM [activator, full curve, poor fit]
9 | Cc1ccc(C(=O)NCc2cccc(C(F)(F)F)c2)cc1S(=O)(=O)N1CCCCC1 | inactive
10 | C1=CC2CC1CC2CN1CCN(Cc2ccccc2)CC1 (configuration not stated) | inconclusive: 35.5 µM [inhibitor, single point]
11 | CCOc1ccc(-n2c(=O)c3c4c(sc3n(CC(=O)NCCCOC)c2=O)CCCCC4)cc1 | inconclusive: 35.5 µM [inhibitor, single point]
12 | O=C(Nc1ccc(N2CCN(C(=O)c3ccccc3)CC2)cc1)c1cc2ccccc2o1 | active: 14.1 µM
13 | CC(=O)N1CCCc2cc(S(=O)(=O)N3CCCC(C(=O)N4CCN(c5ccccc5F)CC4)C3)ccc21 (configuration not stated) | inconclusive: 35.5 µM [inhibitor, single point]
14 | COc1ccc(OC)c(NC(=O)c2cccc(S(=O)(=O)N(Cc3ccccc3)c3ccccc3OC)c2)c1 | inactive
15 | CNC(=O)NC(=O)CSc1ccc(S(=O)(=O)N(C)C2CCCCC2)cn1 | inconclusive: 1.41 µM [inhibitor, partial curve, poor fit]
16 | COc1ccc(C/C(N)=N/OC(=O)COc2ccccc2C)cc1 | inconclusive: 12.6 µM [inhibitor, partial curve, poor fit]
17 | COc1ccc(NCc2nnc(SCC(=O)Nc3cccc(C)c3)o2)cc1 | inactive
18 | C=CCNC(=O)COC(=O)CCC(=O)c1cccs1 | inactive
19 | CCCCN1C(=O)N(C)C2NC(=O)NC21 (configuration not stated) | inconclusive: 0.259 µM [activator, full curve, poor fit]
20 | Nc1nc2ccccc2n1/N=C/c1ccc([N+](=O)[O-])s1 | inconclusive: 12.6 µM [inhibitor, partial curve, poor fit]
21 | COc1ccc(NC(=O)CN(C)C(=O)c2ccc(N3CCCC3)c([N+](=O)[O-])c2)cc1 | inconclusive: 1.78 µM [inhibitor, partial curve, poor fit]
22 | Cc1ccc(NC(=O)CN2CC(C)SC2=NC2CCCCC2)cc1 (configuration not stated) | inconclusive: 2 µM [inhibitor, partial curve, poor fit]
23 | Cc1ccc(C(=O)OCC(=O)NNC(=O)c2ccccc2)c(O)c1 | inactive

Entries above that have a thiophene ring, fused or not, in the order listed:
Row | SMILES | Potency
5 | Cc1nc(SCC(=O)OC(C)(C)C)c2c3c(sc2n1)CCCC3 | inactive
11 | CCOc1ccc(-n2c(=O)c3c4c(sc3n(CC(=O)NCCCOC)c2=O)CCCCC4)cc1 | inconclusive: 35.5 µM [inhibitor, single point]
18 | C=CCNC(=O)COC(=O)CCC(=O)c1cccs1 | inactive
20 | Nc1nc2ccccc2n1/N=C/c1ccc([N+](=O)[O-])s1 | inconclusive: 12.6 µM [inhibitor, partial curve, poor fit]

Next part

Row | SMILES | Potency
24 | COc1cccc(C2Nc3c(F)cc(Br)cc3C3C=CCC32)c1OC (configuration not stated) | inactive
25 | CCOc1ccc(-n2nc(CO)c(C(=O)NCC(c3ccccc3)c3ccccc3)n2)cc1 | inactive
26 | Nc1nn(-c2cccc(F)n2)cc1-c1ccc(Cl)cc1 | inconclusive: 11.2 µM [inhibitor, partial curve, poor fit]
27 | Brc1cc2c(cc1C1Nc3ccccc3C3C=CCC31)OCO2 (configuration not stated) | inactive
28 | CCC(C)(C)c1ccc(OCCCC[n+]2ccc(C)cc2)c(C(C)(C)CC)c1 | inconclusive: 29.1 µM [inhibitor, single point]
29 | CCCCNC(=O)c1ccc2c(c1)ncn2C1CCCC1 | inactive
30 | CCN1C(=O)C(CC(=O)Nc2ccc(F)cc2)N(CCc2ccc(OC)cc2)C1=S (configuration not stated) | inconclusive: 35.5 µM [inhibitor, single point]
31 | COc1ccccc1NC(=O)C(C)N(C)Cc1ccc(Cl)s1 (configuration not stated) | inconclusive: 16.4 µM [inhibitor, single point]
32 | CCOc1ccc(S(=O)(=O)Nc2nc3ccccc3nc2Nc2ccc(N3CCOCC3)cc2)cc1 | inconclusive: 17.8 µM [activator, partial curve, poor fit]
33 | Cc1ccc(N(CC(=O)Nc2cc(Cl)ccc2Oc2ccccc2)S(C)(=O)=O)cc1C | inconclusive: 22.4 µM [inhibitor, single point]
34 | Cc1ccc(C(=O)NNC(=O)/C=C\C(=O)O)cc1 | inconclusive: 35.5 µM [activator, single point]
35 | CCCCNC(=O)c1cnn2c(C)c(Cc3c(C)cc(C)cc3C)c(C)nc12 | inconclusive: 12.6 µM [inhibitor, partial curve]
36 | COc1cc(NC(=O)Cn2c(=O)n(-c3ccccc3)c(=O)c3c4c(sc32)CCCC4)cc(OC)c1 | inactive
37 | CC1CC(C)CN(C(=O)c2ccc3ccccc3c2)C1 (configuration not stated) | inactive
38 | COc1ccc(C(=O)Nc2cc(C)cc(C)c2)cc1S(=O)(=O)N1CCOCC1 | inactive
39 | CC1CCN(S(=O)(=O)c2ccc(NC(=O)CN3CCN(c4ccccc4)CC3)cc2)CC1 | inconclusive: 14.6 µM [inhibitor, partial curve, poor fit]
40 | CCc1ccc(N2C(=O)CN(Cc3ccc(OC)c(OC)c3)C2=S)cc1 | inconclusive: 18.4 µM [inhibitor, partial curve, poor fit]
41 | Cn1c(/C(C#N)=C(\O)CN2CCN(Cc3ccccc3)CC2)nc2ccccc21 | inconclusive: 1.26 µM [inhibitor, single point]
42 | O=C(NCc1cccc(Cl)c1)C1CCN(c2nn3cc(-c4ccc(F)cc4)nc3s2)CC1 | inactive
43 | O=c1c2cc(Cl)ccc2nc(-c2ccc([N+](=O)[O-])cc2)n1O | inconclusive: 35.5 µM [inhibitor, single point]
44 | O=[N+]([O-])c1ccc(N/N=C/c2cn(-c3ccccc3)nc2-c2ccccc2)cc1 | inactive
45 | CC(NC(=O)COC(=O)C1=NN(c2ccccc2)C(=O)CC1)c1ccccc1 (configuration not stated) | inconclusive: 2.24 µM [inhibitor, partial curve, poor fit]
46 | OCCN1CCN(CC(O)COc2ccc(-c3ccccc3)cc2)CC1 (configuration not stated) | inconclusive: 2.31 µM [activator, single point]

Row | SMILES | Potency
47 | COc1ccc(-n2ncc(C(=O)NCc3ccc4c(c3)OCO4)c2C2CCN(C(=O)OC(C)(C)C)CC2)cc1 | inconclusive: 7.08 µM [inhibitor, partial curve]
48 | Cc1ccc2nc(NC(=O)c3ccc(Cn4cc(Cl)cn4)o3)sc2c1 | inactive
49 | CCc1cccc(N2C(=O)CSC23C(=O)N(Cc2ccccc2F)c2ccccc23)c1 (configuration not stated) | active: 10 µM
50 | C=C1C(=O)[C@@]23[C@H](O)C[C@@H]4C(C)(C)CC[C@H](O)[C@]4(C)[C@@H]2C[C@H](O)[C@@H]1[C@H]3O | inconclusive: 20.6 µM [inhibitor, single point]
51 | COc1ccc2oc(=Nc3cccc(F)c3)c(C(N)=O)cc2c1 | inconclusive: 7.94 µM [inhibitor, partial curve]
52 | CSc1cccc(NC(=O)c2[nH]c(C)c(C(C)=O)c2C)c1 | inconclusive: 8.91 µM [inhibitor, partial curve, poor fit]
53 | O=c1oc(-c2ccccc2)cc(Cl)c1Cl | inconclusive: 35.5 µM [inhibitor, single point]
54 | CN(C)S(=O)(=O)c1cccc(C(=O)C2=C3SC=C(c4ccccc4)N3CC2)c1 | inactive
55 | Cc1cc(C(=O)N/N=C/c2ccc(OCc3ccccc3)cc2)c(C)o1 | inconclusive: 20 µM [inhibitor, single point]
56 | O=C(Cc1ccccc1)NCc1ccc(-n2cccc2)cc1 | inconclusive: 0.206 µM [inhibitor, full curve, poor fit]
57 | Cc1nn(C)c(C)c1CS(=O)(=O)c1ccccc1 | inactive
58 | COC(=O)c1scc(-c2ccc(C)cc2)c1S(=O)(=O)Nc1ccc(NC(C)=O)cc1 | inconclusive: 14.1 µM [inhibitor, single point]
59 | CCSc1nc2sccc2c(=O)n1-c1ccccc1 | inconclusive: 28.2 µM [activator, single point]
60 | N#CCSc1nnc(-c2sc3ccccc3c2Cl)o1 | inconclusive: 5.62 µM [inhibitor, full curve]
61 | Cc1cccc(NC(=S)N(C)C2CCCCC2)c1 | inconclusive: 2.51 µM [inhibitor, single point]
62 | COc1ccc(-c2cn3nc(SCC(=O)Nc4ccccc4F)ccc3n2)cc1 | inconclusive: 7.94 µM [inhibitor, partial curve, poor fit]
63 | NC(=O)CC1(CC(=O)O)CCCCC1 | inconclusive: 13 µM [inhibitor, partial curve, poor fit]
64 | CCOc1cc(/C=C/C(=O)O)ccc1OCCOc1ccc(F)cc1 | inconclusive: 11.2 µM [inhibitor, partial curve, poor fit]
65 | O=C1c2ccccc2C(=O)N1CCCCN(C(=O)c1cc2ccccc2oc1=O)c1ccc(F)cc1F | inconclusive: 10.3 µM [inhibitor, partial curve]
66 | O=C(CCCC(=O)c1ccc(F)cc1)c1ccc(F)cc1 | inconclusive: 3.55 µM [activator, single point]
67 | CC(C)c1ccc(NC(=O)CCNC(=O)Cn2ccc3ccccc3c2=O)cc1 | inconclusive: 11.2 µM [inhibitor, partial curve, poor fit]
